Earlier results, collected in patent US20240299291A1, “OPHTHALMIC PREPARATION ADMINISTERED BY EYE DROPS AND USED FOR PREVENTING AND TREATING DRY MACULAR DEGENERATION AND RETINAL LIGHT DAMAGE” (CHENGDU RUIMU BIOPHARMACEUTICALS CO., LTD., priority 2021, published 2024).
At least one compound was matched to its structure with a doubt left.

System: chronic inflammation such as rosacea
Conditions: low-dose doxycycline (20-40 mg/day)

## C[C@H]1c2cccc(O)c2C(=O)C2=C(O)[C@]3(O)C(=O)C(C(N)=O)=C(O)[C@@H](N(C)C)[C@@H]3[C@@H](O)[C@@H]21 [doxycycline]
  Effect on chronic inflammation such as rosacea: obvious effects on chronic inflammation such as rosacea
